Here are results for 69 sequences from PubChem BioAssay AID1347426 (Functional Genomics Laboratory (NCATS/FGL), 2020).

Hit rate of the full screen: of about 31,000 sequences, about 1,400 (4.5%) were called active.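 How the source made its calls: active means median seed-adjusted z-score above 1 or below -1; inactive means the rest.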 The list shows a part of the results.

The assay in a line: Novel Modifiers of Survival Motor Neuron (SMN) Protein: Gene Identification via Genome-wide siRNA Screen.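 Further: luminescence tracks full-length SMN protein made from the SMN2 reporter.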 To be noted: HEK293T SMN2-luciferase reporter, siRNA knockdown, 72 h; actives lie on both sides. In short, it runs like this:
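Genome-wide siRNA screen (10418 genes, 3 siRNAs each, 1 pmol per well) by reverse transfection in HEK293T cells stably carrying an SMN2-luciferase reporter; luminescence after 72 hours, normalized to negative-control siRNA, log10-transformed, MAD-scored.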
(In general: Reporter assays use an easily measured gene product as a stand-in for the process of interest.)
On to CCACAUCGAAGGAACAGGATT against MYBL2, for which the median seed-adjusted z-score is inactive: 0.592.

As for AGAGAGCUCCGAACCUUCUTT against ICAM5, the median seed-adjusted z-score is active: -1.

Regarding CUGCUUAACCGAUUCAAUUTT against NSUN3, the median seed-adjusted z-score is inactive: 0.302.

Take GCAUGAGGGAGGACGUGUATT against THOP1: the median seed-adjusted z-score was inactive: 0.643.

For GUCUUUAGCUGACCUGAAUTT against DMD, the median seed-adjusted z-score was inactive: -0.626.

As to UCAUAUCUGCUAAAGCGAATT against PIF1, the median seed-adjusted z-score was inactive: -0.0455.

Consider GCAGCUCCAUUACUUCAAATT against MCFD2, for which the median seed-adjusted z-score was inactive: -0.0111.

Regarding CCCGAACACUGUUUCAGUUTT against ABTB2, the median seed-adjusted z-score is inactive: 0.432.

In the case of GCUCUAUCAAAGAAAGCAATT against PDHX, the median seed-adjusted z-score is inactive: 0.21.

As for GCAACUCUGUCUAGAACAATT against TSGA14, the median seed-adjusted z-score is inactive: 0.433.

For CACUUAAGAGCUUCGAAAATT against FKBP5, the median seed-adjusted z-score is inactive: -0.598.

Take GCAUUGAAACGAAUGGGAATT against UBA5: the median seed-adjusted z-score was inactive: -0.105.

On to GCAGCAUGCUACAACCAAATT against RNF25, for which the median seed-adjusted z-score is inactive: -0.0826.

Consider GGAAUUCCUUUAAUGACGATT against RYR3, for which the median seed-adjusted z-score was inactive: 0.

Turning to GCACGGCUGAAGACUCUAATT against GNRHR, the median seed-adjusted z-score is inactive: 0.0978.

With CAACUUAGUUUGGAUGUAATT against CHST10, the median seed-adjusted z-score was inactive: 0.115.

With GAAUUGUUGAAACCCAUUUTT against GNAI1, the median seed-adjusted z-score is inactive: -0.233.

In the case of GGAUUCAUUCUGUUACUUATT against GSTT2, the median seed-adjusted z-score is inactive: 0.0298.

Turning to CCUCAGAUGUGAUGUGGAATT against ACSM3, the median seed-adjusted z-score was inactive: 0.281.

As to GCAUUGUUAUGAGCCUUGATT against RDH8, the median seed-adjusted z-score is inactive: -0.657.

Turning to GCAUCAUCCAGAGACUGCATT against CCL19, the median seed-adjusted z-score is inactive: 0.0364.

Consider CAUUGUCAAUAUAACGAUUTT against GPR98, for which the median seed-adjusted z-score is inactive: -0.509.

Regarding GGAAGUCUGUUUCACGAUATT against SND1, the median seed-adjusted z-score was inactive: -0.0434.

For the sequence UGAAACUGUUAGUAGCAAATT against USP46, the median seed-adjusted z-score was inactive: -0.964.

As for GGAUCCGAGAGUCACCCAATT against LLGL1, the median seed-adjusted z-score was active: -1.13.

GGAUAUUUCCCAGAGGAAATT against ZNF69: the median seed-adjusted z-score is inactive: 0.

In the case of CUAUGGUAGCGACACUGCATT against LILRB1, the median seed-adjusted z-score was inactive: 0.539.

Take CGAUUUUGUCACAACAACATT against EIF5: the median seed-adjusted z-score is inactive: 0.362.

Consider CUCCUGAGAUAAUAAUGAATT against RFC3, for which the median seed-adjusted z-score was inactive: 0.733.

GCAGAAGGCUGCUUACUAUTT against HOXD3: the median seed-adjusted z-score was inactive: 0.233.

Consider AGAAGAGUUUUCUAGCGAATT against POU2F2, for which the median seed-adjusted z-score is inactive: 0.163.

With CAGCUCAAGUCUUCCCUGATT against LTA, the median seed-adjusted z-score was inactive: 0.273.

On to GGAGGAGAAUCCAUCUAUUTT against GJC1, for which the median seed-adjusted z-score was inactive: -0.0291.

For GAAUGAUUGAGUUUCGUGATT against PURG, the median seed-adjusted z-score is inactive: 0.448.

Regarding UGACGUAAUUCACUCGUUUTT against RNASET2, the median seed-adjusted z-score was inactive: -0.126.

For the sequence CAAUGAUCCCGGGCAUUUATT against RPP21, the median seed-adjusted z-score was active: -1.09.

Take GAGGAAUUCUUCGACCUCATT against GPSM1: the median seed-adjusted z-score is inactive: -0.275.

In the case of GAAGAAACCUUGAACGACATT against DHRSX, the median seed-adjusted z-score is inactive: -0.686.

As for GGGCUACCUGUGCUACUCATT against KRTAP23-1, the median seed-adjusted z-score was inactive: 0.647.

For GACGAAUUCUUCACCAUGATT against DUOX2, the median seed-adjusted z-score was inactive: 0.525.

GCAAGGUAGUCGAUAGUGATT against CDH13: the median seed-adjusted z-score was inactive: 0.

Turning to CUGUGAGAGUGAUCGGGAATT against HUWE1, the median seed-adjusted z-score is inactive: 0.734.

As for AAAUGCAAGAGUUUGGUUATT against RBP7, the median seed-adjusted z-score was inactive: 0.0709.

Take CCAAGAUGCUCAGUCAUCATT against MAP4K1: the median seed-adjusted z-score was inactive: 0.

Consider GGAGGAUUCUAACAUGGAUTT against RASAL1, for which the median seed-adjusted z-score was inactive: -0.089.

On to GGAAGUCCACCUUUCUCAATT against PNKP, for which the median seed-adjusted z-score was inactive: -0.0563.

Turning to AAGACGUGUUUAUCAUUAATT against LMX1A, the median seed-adjusted z-score is inactive: 0.15.

Take GAGUCUAAACUAUCCUGAATT against OVCH2: the median seed-adjusted z-score was inactive: 0.439.

Take CGAGGGCUAUGGAAGGAAATT against MAP3K3: the median seed-adjusted z-score is inactive: -0.182.

Consider AGUCCAACAUCUGCCUUUATT against ITGAX, for which the median seed-adjusted z-score is inactive: -0.0677.

On to GAGUGAAACUGUACGGAAUTT against PCDHGA9, for which the median seed-adjusted z-score is inactive: -0.125.

As for GGGACUAGCUCUUCGCAUATT against PTGER3, the median seed-adjusted z-score is inactive: -0.321.

Turning to GGAUCUGUAUCAAGCCGUUTT against APC, the median seed-adjusted z-score was inactive: 0.154.

With AGGAGUUCUUGGUCAUGAUTT against TNNC2, the median seed-adjusted z-score is inactive: -0.773.

For the sequence AGACCAUCGAGACACGGGATT against DES, the median seed-adjusted z-score is inactive: 0.

For the sequence AAGCCUCCAUUGAAAGAAUTT against GNG12, the median seed-adjusted z-score is inactive: 0.331.

Take GGAAAAAGUCUAUAAUCUUTT against POLR3E: the median seed-adjusted z-score was inactive: -0.55.

As to GGUAUUUCCAGGCCCACAATT against SHROOM1, the median seed-adjusted z-score was inactive: 0.0461.

In the case of UCAUUAGUGUCGACCCUAATT against SMARCD2, the median seed-adjusted z-score was inactive: 0.162.

Consider AGAACAAAGACCUAAUGGATT against TNNT3, for which the median seed-adjusted z-score was inactive: -0.293.

In the case of AGAUGAUUCUAGAAUCCAATT against STK32B, the median seed-adjusted z-score was inactive: 0.683.

Turning to GCUAGAUCACUGUAACAUATT against GSK3B, the median seed-adjusted z-score is inactive: -0.952.

Turning to GGGUGUAAAAUGCACGUUUTT against CLDN16, the median seed-adjusted z-score was inactive: -0.868.

CCAGCUCCUUUAUCAAGCATT against RAD51: the median seed-adjusted z-score was inactive: 0.594.

In the case of AGCUGAUUUCGGAACACUATT against GFOD2, the median seed-adjusted z-score was inactive: -0.0447.

Consider CCACUUUGAAGGACACUAUTT against DUSP4, for which the median seed-adjusted z-score was inactive: -0.176.

As for CGAAGGGUUUGAAUACCGATT against HIRA, the median seed-adjusted z-score was inactive: 0.286.

Turning to GUAUGAUGAUAGUCGAAUATT against MAP3K2, the median seed-adjusted z-score was inactive: 0.

With GAUCCACCCAAAUAUCAAATT against KLF1, the median seed-adjusted z-score was inactive: 0.
